# Some of the results follow.
# B1: Epa2 (Candida glabrata) (protein)
# chain: MGSSHHHHHHSSGLVPRGSHMASSKDPTSFPMGCSPQVLKTQPGLAVKLYSYGHPVPGCAYNTYQYPDFPRSGYKKERKLADITGVNGRIDIDLKPNDPCRVLSGNLPSNYNYQNTLTYTNFTMILYGYFQPKVTGYHTFNLEADDLLFMNLGAGNAFDCCRAESTLDNFGNYQSYSIWGTDKATADLTVFLVSGIYYPIRLFYVNRDNNAVLDFSFSTEFNKEIIHDFTSYFFSASDEEQCPGNI
# Legend:
# Experiment in all cases: glycan array binding signal (z-score within array); higher = stronger binding
# Conditions in all cases: glycan notation: IUPAC condensed, linker removed
# GalNAc(b1-4)GlcNAc = biological target: GalNAc(b1-4)GlcNAc
# Method in brief: (§1)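 Arrays were curated from the Consortium for Functional Glycomics database, 3228 in total, and kept only where the protein sequence was available. Binding is expressed as a within-array Z-score. This score was averaged across arrays of the same protein sequence at different concentrations or buffers and across linkers, and negative values can be read as non-binding.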
# [1] = biological target: GalNAc(b1-4)GlcNAc(b1-2)Man
# Method in brief: as §1
# [2] = biological target: GalNAc(b1-4)GlcNAc(b1-2)Man(a1-3)[GalNAc(b1-4)GlcNAc(b1-2)Man(a1-6)]Man(b1-4)GlcNAc(b1-4)GlcNAc
# Method in brief: as §1
# [3] = biological target: GalNAc(b1-4)GlcNAc(b1-3)GalNAc(b1-4)GlcNAc
# Method in brief: as §1
# GalNAc(b1-4)GlcNAc6S = biological target: GalNAc(b1-4)GlcNAc6S
# Method in brief: as §1
# GalNAc(b1-6)GalNAc = biological target: GalNAc(b1-6)GalNAc
# Method in brief: as §1
# GalNAc3S(b1-4)GlcNAc = biological target: GalNAc3S(b1-4)GlcNAc
# Method in brief: as §1
# GalNAc3S(b1-4)GlcNAc3S = biological target: GalNAc3S(b1-4)GlcNAc3S
# Method in brief: as §1
# [4] = biological target: GalNAc3S(b1-4)[Fuc(a1-3)]GlcNAc
# Method in brief: as §1
# GalNAc4S6S(b1-4)GlcNAc = biological target: GalNAc4S6S(b1-4)GlcNAc
# Method in brief: as §1
# GalNAc6S(b1-4)GlcNAc = biological target: GalNAc6S(b1-4)GlcNAc
# Method in brief: as §1
# Glc(a1-4)Glc = biological target: Glc(a1-4)Glc
# Method in brief: as §1
# [5] = biological target: Glc(a1-4)Glc(a1-4)Glc(a1-4)Glc
# Method in brief: as §1
# Glc(a1-6)Glc(a1-6)Glc = biological target: Glc(a1-6)Glc(a1-6)Glc
# Method in brief: as §1
# [6] = biological target: Glc(a1-6)Glc(a1-6)Glc(a1-6)Glc
# Method in brief: as §1
# Glc(b1-4)Glc = biological target: Glc(b1-4)Glc
# Method in brief: as §1
# Glc(b1-6)Glc = biological target: Glc(b1-6)Glc
# Method in brief: as §1
# GlcA(b1-3)Gal = biological target: GlcA(b1-3)Gal
# Method in brief: as §1
# GlcA(b1-3)GlcNAc = biological target: GlcA(b1-3)GlcNAc
# Method in brief: as §1
# GlcA(b1-6)Gal = biological target: GlcA(b1-6)Gal
# Method in brief: as §1
# [7] = biological target: GlcA3S(b1-3)Gal(b1-4)GlcNAc(b1-2)Man
# Method in brief: as §1
# [8] = biological target: GlcA3S(b1-3)Gal(b1-4)GlcNAc(b1-3)Gal(b1-4)Glc
# Method in brief: as §1
# [9] = biological target: GlcNAc(a1-3)Gal(b1-4)GlcNAc
# Method in brief: as §1
# [10] = biological target: GlcNAc(a1-4)Gal(b1-3)GlcNAc
# Method in brief: as §1
# [11] = biological target: GlcNAc(a1-4)Gal(b1-4)GalNAc
# Method in brief: as §1
# [12] = biological target: GlcNAc(a1-4)Gal(b1-4)GlcNAc
# Method in brief: as §1
# [13] = biological target: GlcNAc(a1-4)Gal(b1-4)GlcNAc(b1-3)Gal(b1-4)Glc
# Method in brief: as §1
# [14] = biological target: GlcNAc(a1-4)Gal(b1-4)GlcNAc(b1-3)Gal(b1-4)GlcNAc
# Method in brief: as §1
# [15] = biological target: GlcNAc(a1-4)Gal(b1-4)GlcNAc(b1-3)Gal(b1-4)GlcNAc(b1-3)Gal(b1-4)GlcNAc
# Method in brief: as §1
# [16] = biological target: GlcNAc(a1-4)Gal(b1-4)GlcNAc(b1-3)Gal(b1-4)[Fuc(a1-3)]GlcNAc(b1-3)Gal(b1-4)[Fuc(a1-3)]GlcNAc
# Method in brief: as §1
# [17] = biological target: GlcNAc(a1-6)Gal(b1-4)GlcNAc
# Method in brief: as §1
# [18] = biological target: GlcNAc(b1-2)Gal(b1-3)GalNAc
# Method in brief: as §1
# [19] = biological target: GlcNAc(b1-2)Man(a1-3)[GlcNAc(b1-2)Man(a1-6)]Man(b1-4)GlcNAc(b1-4)GlcNAc
# Method in brief: as §1
# [20] = biological target: GlcNAc(b1-2)Man(a1-3)[GlcNAc(b1-2)Man(a1-6)]Man(b1-4)GlcNAc(b1-4)[Fuc(a1-6)]GlcNAc
# Method in brief: as §1
# [21] = biological target: GlcNAc(b1-2)Man(a1-3)[GlcNAc(b1-4)][GlcNAc(b1-2)Man(a1-6)]Man(b1-4)GlcNAc(b1-4)GlcNAc
# Method in brief: as §1
# [22] = biological target: GlcNAc(b1-2)Man(a1-3)[GlcNAc(b1-4)][GlcNAc(b1-2)Man(a1-6)]Man(b1-4)GlcNAc(b1-4)[Fuc(a1-6)]GlcNAc
# Method in brief: as §1
# [23] = biological target: GlcNAc(b1-2)[GlcNAc(b1-4)]Man(a1-3)[GlcNAc(b1-2)Man(a1-6)]Man(b1-4)GlcNAc(b1-4)GlcNAc
# Method in brief: as §1
binder,measurement,setting,value
B1,glycan array binding signal (z-score),GalNAc(b1-4)GlcNAc,0.685
same,glycan array binding signal (z-score),[1],-0.305
same,glycan array binding signal (z-score),[2],0.305
same,glycan array binding signal (z-score),[3],0.622
same,glycan array binding signal (z-score),GalNAc(b1-4)GlcNAc6S,1.21
same,glycan array binding signal (z-score),GalNAc(b1-6)GalNAc,-0.851
same,glycan array binding signal (z-score),GalNAc3S(b1-4)GlcNAc,0.304
same,glycan array binding signal (z-score),GalNAc3S(b1-4)GlcNAc3S,0.541
same,glycan array binding signal (z-score),[4],0.25
same,glycan array binding signal (z-score),GalNAc4S6S(b1-4)GlcNAc,0.176
same,glycan array binding signal (z-score),GalNAc6S(b1-4)GlcNAc,0.17
same,glycan array binding signal (z-score),Glc(a1-4)Glc,-0.167
same,glycan array binding signal (z-score),[5],0.96
same,glycan array binding signal (z-score),Glc(a1-6)Glc(a1-6)Glc,-0.714
same,glycan array binding signal (z-score),[6],-0.332
same,glycan array binding signal (z-score),Glc(b1-4)Glc,0.058
same,glycan array binding signal (z-score),Glc(b1-6)Glc,-0.244
same,glycan array binding signal (z-score),GlcA(b1-3)Gal,-0.102
same,glycan array binding signal (z-score),GlcA(b1-3)GlcNAc,0.115
same,glycan array binding signal (z-score),GlcA(b1-6)Gal,0.586
same,glycan array binding signal (z-score),[7],-0.547
same,glycan array binding signal (z-score),[8],-0.733
same,glycan array binding signal (z-score),[9],-0.681
same,glycan array binding signal (z-score),[10],-0.432
same,glycan array binding signal (z-score),[11],-0.65
same,glycan array binding signal (z-score),[12],-0.615
same,glycan array binding signal (z-score),[13],-0.784
same,glycan array binding signal (z-score),[14],-0.429
same,glycan array binding signal (z-score),[15],-0.057
same,glycan array binding signal (z-score),[16],0.216
same,glycan array binding signal (z-score),[17],-1
same,glycan array binding signal (z-score),[18],-0.485
same,glycan array binding signal (z-score),[19],-0.259
same,glycan array binding signal (z-score),[20],0.098
same,glycan array binding signal (z-score),[21],-0.495
same,glycan array binding signal (z-score),[22],-0.368
same,glycan array binding signal (z-score),[23],-0.62

# Part of the list above, set out differently.
binder	measurement	setting	value
B1	glycan array binding signal (z-score)	GalNAc(b1-6)GalNAc	-0.851
same	glycan array binding signal (z-score)	GalNAc3S(b1-4)GlcNAc	0.304

# Reference: the supplement of paper PMC8728848
